Results are given in words; binding and its absence hold for the method and conditions named. Some binding calls cover weakened binding; strength is not graded here. Sequences can lack the tags named with a protein.
How the values were obtained:
[1] = biological target: FN(7B89), recombinant fibronectin fragment of domains 7, ED-B, 8 and 9 with 6xHis tags (human) (UniProt P02751); test: ELISA on coated FN(7B89) after incubation of B5-IgG1Fc in Balb/c mouse plasma at 37 C, HRP-labeled rabbit anti-human IgG as secondary antibody, OD450 given relative to the 0 hr standard
[2] = biological target: FN(7B89), recombinant fibronectin fragment of domains 7, ED-B, 8 and 9 with 6xHis tags (human) (UniProt P02751); test: ELISA on coated antigen, antibody B5 as primary antibody, HRP-labeled rabbit anti-human IgG as secondary antibody, OD450
[3] = biological target: FN(7B89), recombinant fibronectin fragment of domains 7, ED-B, 8 and 9 with 6xHis tags (human) (UniProt P02751); test: ELISA, coated antigen, anti-human IgG-HRP

Protein sequences, listed by entry. Tags and fused reporters are not part of them. Lines headed by an entry give the natural chain unless they say otherwise; changes in a name come on top. Chains listed by the source or under a name are the forms on record and can include a tag or linker.
FN(7B89), recombinant fibronectin fragment of domains 7, ED-B, 8 and 9 with 6xHis tags (P02751, form named): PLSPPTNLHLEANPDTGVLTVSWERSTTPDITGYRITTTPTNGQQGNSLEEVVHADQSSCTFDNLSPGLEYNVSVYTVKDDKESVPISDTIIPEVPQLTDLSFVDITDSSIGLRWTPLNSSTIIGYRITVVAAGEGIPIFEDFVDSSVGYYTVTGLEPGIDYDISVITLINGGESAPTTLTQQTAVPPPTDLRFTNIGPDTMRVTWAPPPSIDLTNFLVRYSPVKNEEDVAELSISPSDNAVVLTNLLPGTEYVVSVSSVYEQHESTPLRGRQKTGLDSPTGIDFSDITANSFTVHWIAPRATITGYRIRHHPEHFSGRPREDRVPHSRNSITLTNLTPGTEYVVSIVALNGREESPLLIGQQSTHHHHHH

- binding [1]: binds
- binding [2]: binds
- binding [3]: binds
B1: antibody B5 (humanized single-chain antibody against the ED-B domain, expressed as a fusion with the Fc of human IgG1) (Fc fusion)
scFv: EVQLLESGGGLVQPGGSLRLSCAASGFTFSSYAMSWVRQAPGKGLEWVSRISPSGSSTYYADSVKGRFTISRDNSKNTLYLQMNSLRAEDTAVYYCARHTAPLFDYWGQGTLVTVSSGGGGSGGGGSGGGGSSEIVLTQSPGTLSLSPGERATLSCRASQSVSSSYLAWYQQKPGQAPRLLIYKASNLATGIPDRFSGSGSGTDFTLTISRLEPEDFAVYYCQQGRHTPPTFGQGTKVEIK
notes: also called B5-IgG1Fc; single-chain antibody B5; not shown: Fc fragment of the constant region of human IgG1, fused in frame after the scFv (pCI-neo vector); limits and junction no

Source: patent publication US20190185550A1 (HEFEI LIFEON PHARMACEUTICAL, published 2019)
